Measured values published in article PMC2391170.
Results are given in words; binding and its absence hold for the method and conditions named. Some results given as binding are weak or reduced against the parent protein; the word gives no strength.

What was measured:
Test in all cases: two-hybrid; AD (pGAD-C(1)) and BD (pGBD-C(1)) fusions in yeast PJ69-4; dual transformants tested on media lacking leucine, tryptophan and adenine; positive if all tested colonies (4 to 10) grew; both combinations of clones tested whenever possible
[1] = target: T1, AtCPSF30 (Arabidopsis) (UniProt A9LNK9)
T1 sequence: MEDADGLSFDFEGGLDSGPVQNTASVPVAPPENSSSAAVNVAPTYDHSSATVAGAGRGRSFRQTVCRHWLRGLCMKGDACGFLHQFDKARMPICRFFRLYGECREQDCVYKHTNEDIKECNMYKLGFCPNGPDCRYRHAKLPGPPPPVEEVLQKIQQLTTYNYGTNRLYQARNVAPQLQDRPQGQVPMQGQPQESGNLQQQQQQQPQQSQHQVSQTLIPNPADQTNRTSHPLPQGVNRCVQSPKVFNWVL

[2] = target: T2, AtCPSF73-I (Arabidopsis) (UniProt Q9C952)
T2 sequence: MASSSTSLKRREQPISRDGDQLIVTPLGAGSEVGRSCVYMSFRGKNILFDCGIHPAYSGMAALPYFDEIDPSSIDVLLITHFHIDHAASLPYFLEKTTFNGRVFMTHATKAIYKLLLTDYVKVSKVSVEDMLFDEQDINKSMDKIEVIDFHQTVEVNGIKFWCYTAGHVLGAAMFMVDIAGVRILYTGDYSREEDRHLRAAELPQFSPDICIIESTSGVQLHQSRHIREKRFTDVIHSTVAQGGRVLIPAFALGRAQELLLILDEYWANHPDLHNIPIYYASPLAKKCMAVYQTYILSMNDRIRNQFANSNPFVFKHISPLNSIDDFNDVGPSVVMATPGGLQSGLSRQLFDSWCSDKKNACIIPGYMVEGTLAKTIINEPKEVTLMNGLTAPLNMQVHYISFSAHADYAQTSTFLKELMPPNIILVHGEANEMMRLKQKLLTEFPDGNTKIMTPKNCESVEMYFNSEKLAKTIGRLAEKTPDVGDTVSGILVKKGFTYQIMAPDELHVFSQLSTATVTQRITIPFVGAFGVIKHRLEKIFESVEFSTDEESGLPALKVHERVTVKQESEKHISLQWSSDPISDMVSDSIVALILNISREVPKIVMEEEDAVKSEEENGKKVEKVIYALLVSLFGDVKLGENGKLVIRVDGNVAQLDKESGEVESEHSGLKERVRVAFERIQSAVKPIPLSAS

[3] = target: T3, AtCPSF73-II (Arabidopsis) (UniProt Q8GUU3)
T3 sequence: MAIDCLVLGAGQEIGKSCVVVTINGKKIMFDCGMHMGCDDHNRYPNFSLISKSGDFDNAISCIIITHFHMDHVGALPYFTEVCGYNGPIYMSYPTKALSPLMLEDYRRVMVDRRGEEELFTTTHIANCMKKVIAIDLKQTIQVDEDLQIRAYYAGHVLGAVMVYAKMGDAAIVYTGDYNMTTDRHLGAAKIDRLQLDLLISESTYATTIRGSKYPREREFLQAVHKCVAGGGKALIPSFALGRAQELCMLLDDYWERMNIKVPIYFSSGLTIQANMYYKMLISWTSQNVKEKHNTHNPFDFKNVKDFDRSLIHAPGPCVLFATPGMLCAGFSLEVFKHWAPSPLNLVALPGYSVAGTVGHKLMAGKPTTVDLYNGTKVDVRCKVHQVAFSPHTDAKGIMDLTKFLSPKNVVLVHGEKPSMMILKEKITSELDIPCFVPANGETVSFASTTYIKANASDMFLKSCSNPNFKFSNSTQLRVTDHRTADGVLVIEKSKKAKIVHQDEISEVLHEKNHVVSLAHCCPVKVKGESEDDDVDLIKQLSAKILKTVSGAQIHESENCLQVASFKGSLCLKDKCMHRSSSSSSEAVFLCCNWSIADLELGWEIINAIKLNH

[4] = target: T4, FY (Arabidopsis) (UniProt Q6NLV4)
T4 sequence: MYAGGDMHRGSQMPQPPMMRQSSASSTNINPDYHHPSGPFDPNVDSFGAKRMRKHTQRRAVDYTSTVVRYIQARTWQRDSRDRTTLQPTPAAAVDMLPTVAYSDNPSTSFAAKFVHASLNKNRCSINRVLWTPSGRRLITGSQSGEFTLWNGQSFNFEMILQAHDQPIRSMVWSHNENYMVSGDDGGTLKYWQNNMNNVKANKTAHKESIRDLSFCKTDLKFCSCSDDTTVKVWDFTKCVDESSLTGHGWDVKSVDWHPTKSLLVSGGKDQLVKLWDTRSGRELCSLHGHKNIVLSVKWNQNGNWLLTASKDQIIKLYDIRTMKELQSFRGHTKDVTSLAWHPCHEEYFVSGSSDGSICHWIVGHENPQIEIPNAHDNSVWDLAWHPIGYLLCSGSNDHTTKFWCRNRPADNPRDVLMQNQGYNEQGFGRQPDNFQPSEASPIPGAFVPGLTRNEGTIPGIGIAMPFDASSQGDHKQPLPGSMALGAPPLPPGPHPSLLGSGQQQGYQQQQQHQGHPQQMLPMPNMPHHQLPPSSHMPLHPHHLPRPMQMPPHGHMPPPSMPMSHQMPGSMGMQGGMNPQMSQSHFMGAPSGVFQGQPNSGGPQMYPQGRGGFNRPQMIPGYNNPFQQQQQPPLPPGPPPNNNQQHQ

binding [1]: binds
binding [2]: binds
binding [3]: binds
binding [4]: binds
B1: AtCPSF100 (protein, UniProt Q9LKF9 1-739)
chain: MGTSVQVTPLCGVYNENPLSYLVSIDGFNFLIDCGWNDLFDTSLLEPLSRVASTIDAVLLSHPDTLHIGALPYAMKQLGLSAPVYATEPVHRLGLLTMYDQFLSRKQVSDFDLFTLDDIDSAFQNVIRLTYSQNYHLSGKGEGIVIAPHVAGHMLGGSIWRITKDGEDVIYAVDYNHRKERHLNGTVLQSFVRPAVLITDAYHALYTNQTARQQRDKEFLDTISKHLEVGGNVLLPVDTAGRVLELLLILEQHWSQRGFSFPIYFLTYVSSSTIDYVKSFLEWMSDSISKSFETSRDNAFLLRHVTLLINKTDLDNAPPGPKVVLASMASLEAGFAREIFVEWANDPRNLVLFTETGQFGTLARMLQSAPPPKFVKVTMSKRVPLAGEELIAYEEEQNRLKREEALRASLVKEEETKASHGSDDNSSEPMIIDTKTTHDVIGSHGPAYKDILIDGFVPPSSSVAPMFPYYDNTSEWDDFGEIINPDDYVIKDEDMDRGAMHNGGDVDGRLDEATASLMLDTRPSKVMSNELIVTVSCSLVKMDYEGRSDGRSIKSMIAHVSPLKLVLVHAIAEATEHLKQHCLNNICPHVYAPQIEETVDVTSDLCAYKVQLSEKLMSNVIFKKLGDSEVAWVDSEVGKTERDMRSLLPMPGAASPHKPVLVGDLKIADFKQFLSSKGVQVEFAGGGALRCGEYVTLRKVGPTGQKGGASGPQQILIEGPLCEDYYKIRDYLYSQFYLL
